Paper PMC5651854, “Reconstitution of human shelterin complexes reveals unexpected stoichiometry and dual pathways to enhance telomerase processivity” (Nature Communications, 2017)
These are yes or no findings as the source states them, for the method shown. Some binding calls cover weakened binding; strength is not graded here.

The chains behind the UniProt entries cited, without tags or fusion partners.
UniProt Q15554: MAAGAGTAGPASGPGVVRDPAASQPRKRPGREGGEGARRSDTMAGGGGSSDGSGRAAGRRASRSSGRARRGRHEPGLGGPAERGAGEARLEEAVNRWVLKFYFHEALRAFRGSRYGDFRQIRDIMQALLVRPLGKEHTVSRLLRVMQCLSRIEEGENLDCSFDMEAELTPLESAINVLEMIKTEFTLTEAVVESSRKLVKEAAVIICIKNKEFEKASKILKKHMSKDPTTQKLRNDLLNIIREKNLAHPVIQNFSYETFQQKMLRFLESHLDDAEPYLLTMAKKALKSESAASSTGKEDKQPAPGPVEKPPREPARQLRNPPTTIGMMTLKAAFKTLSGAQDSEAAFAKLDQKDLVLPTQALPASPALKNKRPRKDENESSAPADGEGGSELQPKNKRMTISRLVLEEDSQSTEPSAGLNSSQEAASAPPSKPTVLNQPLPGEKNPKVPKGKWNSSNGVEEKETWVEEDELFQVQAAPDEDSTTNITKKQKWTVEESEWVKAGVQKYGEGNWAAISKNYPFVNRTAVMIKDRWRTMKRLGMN

What was measured:
Human TRF2 (human) = Human TRF2 (human) (UniProt Q15554); assay: SEC; proteins co-expressed in Tni insect cells, complex purified (amylose, PreScission cleavage, anion exchange), then Superose 6 Increase 10/300 GL in 50 mM HEPES pH 7.5, 300 mM NaCl, 1 mM TCEP, 4 °C; subunits elute in one peak; both purified
[1] = biological target: T1, Human RAP1 (human), Q9NYB0; assay: SEC-MALS; purified proteins or co-expressed, purified complexes at 1 mg ml^−1, 100 µl on Superose 6 Increase 10/300 GL, 0.5 ml min^−1, 25 °C, 50 mM HEPES pH 7.5, 300 mM NaCl, 1 mM TCEP; both purified; conditions: remark: other sources report otherwise
T1 chain: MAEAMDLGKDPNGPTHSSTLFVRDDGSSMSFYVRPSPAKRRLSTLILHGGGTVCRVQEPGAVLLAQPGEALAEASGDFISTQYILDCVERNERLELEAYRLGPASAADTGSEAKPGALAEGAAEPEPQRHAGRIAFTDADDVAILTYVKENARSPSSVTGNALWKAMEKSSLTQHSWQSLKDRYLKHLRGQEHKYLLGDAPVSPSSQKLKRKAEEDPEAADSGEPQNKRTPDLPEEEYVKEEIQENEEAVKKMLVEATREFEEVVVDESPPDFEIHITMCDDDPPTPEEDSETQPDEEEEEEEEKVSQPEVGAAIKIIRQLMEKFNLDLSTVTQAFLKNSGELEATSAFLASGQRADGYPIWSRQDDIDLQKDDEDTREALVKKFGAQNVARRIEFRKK

Row | Binder | binding (Human TRF2 (human)) | binding [1]
1 | Human RAP1 (protein, UniProt Q9NYB0 1-399) MAEAMDLGKDPNGPTHSSTLFVRDDGSSMSFYVRPSPAKRRLSTLILHGGGTVCRVQEPGAVLLAQPGEALAEASGDFISTQYILDCVERNERLELEAYRLGPASAADTGSEAKPGALAEGAAEPEPQRHAGRIAFTDADDVAILTYVKENARSPSSVTGNALWKAMEKSSLTQHSWQSLKDRYLKHLRGQEHKYLLGDAPVSPSSQKLKRKAEEDPEAADSGEPQNKRTPDLPEEEYVKEEIQENEEAVKKMLVEATREFEEVVVDESPPDFEIHITMCDDDPPTPEEDSETQPDEEEEEEEEKVSQPEVGAAIKIIRQLMEKFNLDLSTVTQAFLKNSGELEATSAFLASGQRADGYPIWSRQDDIDLQKDDEDTREALVKKFGAQNVARRIEFRKK | binds | –
2 | Human RAP1, Q9NYB0 1-399 (protein) MAEAMDLGKDPNGPTHSSTLFVRDDGSSMSFYVRPSPAKRRLSTLILHGGGTVCRVQEPGAVLLAQPGEALAEASGDFISTQYILDCVERNERLELEAYRLGPASAADTGSEAKPGALAEGAAEPEPQRHAGRIAFTDADDVAILTYVKENARSPSSVTGNALWKAMEKSSLTQHSWQSLKDRYLKHLRGQEHKYLLGDAPVSPSSQKLKRKAEEDPEAADSGEPQNKRTPDLPEEEYVKEEIQENEEAVKKMLVEATREFEEVVVDESPPDFEIHITMCDDDPPTPEEDSETQPDEEEEEEEEKVSQPEVGAAIKIIRQLMEKFNLDLSTVTQAFLKNSGELEATSAFLASGQRADGYPIWSRQDDIDLQKDDEDTREALVKKFGAQNVARRIEFRKK | – | no binding (tested: 1 mg ml^−1)
